## Percent effect of library compounds

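Growth of Mycobacterium tuberculosis over 3 days (7H9 medium with glucose and tyloxapol); the read-out is not stated. Compounds at 50 µM. The record gives no direction; compounds that gave an IC50 in retests scored well above the rest, so higher reads as more growth inhibition. Size under these conditions: about 69,000 compounds, about 760 of them at 50% or above in at least one test.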

The filed quantity is “Percent Effect” (%).
How 0% and 100% were set is not recorded. Most values in the screen are low, and negative values occur.
Compounds were drawn at random from those tested, without regard to their results.
Two or more numbers in one place are separate tests of the same structure; such repeats can differ widely.

NC(=O)C(NC1CCN(CC2CCCCC2)CC1)c1ccc(F)cc1 (centres undefined) gave 12.14% & 32.94%. O=C(O)C(F)(F)F.O=C(O)C(F)(F)F.O=C(O)C(F)(F)F.O=C(O)C(F)(F)F.[H][C@]12CC(Cn3cccn3)N(C)[C@@]1([H])CCN(Cc1ccccn1)C2 (some centres undefined) gave -27.83%. With CC(C)Oc1ccc(CSc2nnc(CN3CCCC3=O)o2)cc1 the screen gave 63.66%. With CC(C)(C)c1nnc2n1C(C(=O)N1CCCC1)CC2 (centres undefined) the screen gave -11.82%. For O=C1NCCN1C1CCN(CC(O)c2ccccc2F)CC1 (centres undefined) the result was -5.534% & 0.6204%. CC(C)c1nn(C)c(N(C)C)c1CNCc1ccc(N(C)C)nc1 read -10.64%.

With CN(C)C(C(=O)NCC1(C)COC1)c1cccc(F)c1 (centres undefined) the screen gave 14.13%. For CCc1ncc(CN2CCC(CCc3ccccc3)CC2)cn1 the result was -24.96% & 6.43%. With CCN(CC(=O)Nc1cc(Cl)ccc1C)C(=O)c1cnccn1 the screen gave -37.9%. O=C1COc2cc(C(=O)NCc3ccc(Cl)s3)ccc2N1 gave 23.13%. C[C@@H]1CN(c2cccnn2)CC[C@@]1(O)C1CCOCC1 read 17.51%. CN(Cc1nccn1C)C1CCCN(Cc2noc(C3CC3)n2)C1 (centres undefined) read -63.62%.

Result for Cc1cnn(CC2CN(CCS(=O)(=O)c3ccccc3)CCO2)c1 (centres undefined) was 9.516%. CC(C)N1CCOC(CC(=O)N2CCCN(Cc3ccncc3)CC2)C1 (centres undefined) gave 0.3901% & -12.54%. COCCNC(=O)Cn1cc2c(n1)c(C)nn2C(C)C read 8.64%. Result for CN(C)CC1CSCCCN1C(=O)c1ccc(-n2cccc2)cc1 (centres undefined) was 12.55%. [H][C@@]12CCN(C(=O)Cc3cccs3)[C@@]1([H])CC(=O)N2CC1CC1 read -9.935%. With O=C(NCCCn1cncn1)N1CCC(N2CCCCC2)CC1 the screen gave 8.411%.

[H][C@@]12CCN(C(=O)c3ccc(S(=O)(=O)NCC(F)F)cc3)[C@]1([H])CNC2 read -14.47%. Result for Cn1cccc1C(=O)N1CCCC2(CCCN2Cc2cccnc2)C1 (centres undefined) was -16.01%. With CN(Cc1nccn1CC(F)(F)F)C(=O)c1cccc(C#N)c1 the screen gave -13.67% & 5.069%. Result for CCn1ncc(S(=O)(=O)N2CCCC3(CC=CNC3=O)C2)c1C (centres undefined) was 19.9%. With Cn1cc(CCNC(=O)NC2CCS(=O)(=O)C2)cn1 (centres undefined) the screen gave -10.3% & -22.56%. Result for O=C(COc1coc(CN2CCCCC2)cc1=O)c1ccccc1 was 11.08%.

With O=C(Cc1cccnc1)NC1COc2ccccc2C1=O (centres undefined) the screen gave -8.376%. Result for O=C(O)c1cc(S(=O)(=O)Nc2ccc(Cl)cc2)cc2c1OCCO2 was 8.27%. CCc1noc(CN(CC)C(=O)c2ccc3ncsc3c2)n1 gave -34.53%. With CS(=O)(=O)c1ccc(C(O)CN2CCC(c3ccn[nH]3)CC2)cc1 (centres undefined) the screen gave -16.75%. With CC(C)c1nc(CN2CCCC2Cn2cccn2)no1 (centres undefined) the screen gave 18.79%. With Cn1nc(CO)c2c1CCN(c1ncnc3c1CCNCC3)C2 the screen gave 27.36%.

CCn1nccc1CNC(=O)C1CCCCC1 read 10.67%. COc1ccc(CC(=O)NC2(C#N)CCOCC2)c(Cl)c1 gave -10.62%. CN(C)c1cc(C(=O)NCC2(c3cccc(F)c3)CCOCC2)ccn1 gave 18.11% & -0.8674%. For COc1ccc(-c2ccc(C(=O)NS(C)(=O)=O)c(F)c2)cc1 the result was 21.21%. With CCn1c(CN(C)C)nnc1C1CCN(Cc2ccccn2)CC1 the screen gave -16.21%. For CCN1Cc2ccccc2CC2(CCN(CC3CCC3)CC2)C1=O the result was -8.845%.

For COCC(=O)N1CCCC(C(=O)N(C)CCn2ccnc2C)C1 (centres undefined) the result was -37.56%. With CC(C)(C)c1nc(CN2CCCC2Cn2cncn2)no1 (centres undefined) the screen gave 12.2%. With O=C(O)C(F)(F)F.[H][C@@]12C[C@@H](C(=O)NC(C)C)C[C@@]1([H])N(Cc1ccsc1)CCO2 the screen gave 10.68% & 0.2976%. With CC(C)(CCS(C)(=O)=O)CNC(=O)NC1CCCCC1(C)C (centres undefined) the screen gave -7.127% & -31.15%. CC(C)[C@H]1CN(Cc2nccn2C)C[C@@H]1NC(=O)COCC(N)=O read 25.68%. With FC1(F)CCNCC12CCN(c1cccnc1)C2.O=C(O)C(F)(F)F.O=C(O)C(F)(F)F (centres undefined) the screen gave -2.666% & -33.36%.

Result for Cc1ncsc1C(=O)Nc1cccc(OCC(F)F)n1 was 5.081% & -1.722%. For CN(Cc1ccccc1OC(F)(F)F)C(=O)C1CCCN(C(N)=O)C1 (centres undefined) the result was 13.83%. Cc1cc(S(=O)(=O)Nc2cccc(OC(F)F)c2)sc1C(=O)O read 9.38% & -26.1%. For Cc1ncnc2c1CCN(C(=O)c1cccnc1)CC2 the result was -13.09% & 0.1142%. For CCOCC1CN(c2ncc(F)cn2)Cc2cn(CC)nc21 (centres undefined) the result was -10.38% & 3.341%. Result for COc1ccc(CNC(=O)N2CCCN(CC3CCCCC3)CC2)cn1 was 25.57%.

The first 5 entries again:

NC(=O)C(NC1CCN(CC2CCCCC2)CC1)c1ccc(F)cc1 (centres undefined) gave 12.14% & 32.94%.
O=C(O)C(F)(F)F.O=C(O)C(F)(F)F.O=C(O)C(F)(F)F.O=C(O)C(F)(F)F.[H][C@]12CC(Cn3cccn3)N(C)[C@@]1([H])CCN(Cc1ccccn1)C2 (some centres undefined) gave -27.83%.
CC(C)Oc1ccc(CSc2nnc(CN3CCCC3=O)o2)cc1 gave 63.66%.
CC(C)(C)c1nnc2n1C(C(=O)N1CCCC1)CC2 (centres undefined) gave -11.82%.
O=C1NCCN1C1CCN(CC(O)c2ccccc2F)CC1 (centres undefined) gave -5.534% & 0.6204%.

Measurements from “University of Dundee, Small-Polar-MMV Screening Library” (2021), ChEMBL document CHEMBL3988442.